# Measurements reported in paper PMC7819943, “Rice protein-binding microarrays: a tool to detect cis-acting elements near promoter regions in rice”.
# Amino acid sequences for entries named in this document (tags omitted).
# UniProt Q0JBA9, entry or part of it: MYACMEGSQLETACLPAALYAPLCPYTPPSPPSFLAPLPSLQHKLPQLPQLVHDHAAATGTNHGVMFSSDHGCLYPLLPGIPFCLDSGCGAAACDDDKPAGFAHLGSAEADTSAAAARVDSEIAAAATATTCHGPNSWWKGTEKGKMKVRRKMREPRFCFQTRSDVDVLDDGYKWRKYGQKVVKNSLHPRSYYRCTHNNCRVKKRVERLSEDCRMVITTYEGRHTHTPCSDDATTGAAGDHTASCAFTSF
# Some of the results follow.
# Target: OsWRKY34 (Oryza sativa, UniProt Q0JBA9 1-250)
# Test: protein-binding microarray (RPBM); PBS, 2% BSA, 51.3 ng/ul salmon testes DNA, 50 uM zinc acetate, 200 nM TF, 25 C, 1 h; high values mean tight binding
# Conditions: protein: recombinant; tags: N-terminal polyhistidine and DsRed monomer fusion (pET32a); label: CyDye5-dUTP incorporated in the synthesized complementary strand; 3' TTTTT single-stranded linker to array surface; dsDNA, one strand shown
# How it was run: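 Transcription factors, each fused N-terminally to a polyhistidine tag and DsRed, were expressed in E. coli BL21-CodonPlus and purified on Ni–NTA. A custom Agilent array was made double-stranded by primer extension with Cy5-dUTP and blocked with 2% BSA. It was incubated with 200 nM protein in PBS, 2% BSA, salmon testes DNA and 50 µM zinc acetate at 25 °C for 1 h, then washed. The binding signal is per-feature fluorescence intensity (arbitrary units) read on an Axon 4000B scanner.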
row,Sequence,binding signal
1,AACCCAAACGTACGGCTTAATGGACCAATTATTTTTTTGTCGGAGTCACCTAGTGCAG,9980 fluorescence intensity (a.u.)
2,GCCGCGCCGGAAAGCTGCCCCATCCACGCAACCCTGCAGCCGGAGTCACCTAGTGCAG,8430 fluorescence intensity (a.u.)
3,ATTTTAGCAAATCCGAAACTCATTTGGTTCATAATCTCTTCGGAGTCACCTAGTGCAG,8170 fluorescence intensity (a.u.)
4,TGCCGTCTTCCTCGTCTCCGGTGACTCTTCGCCGCCGGATCGGAGTCACCTAGTGCAG,9240 fluorescence intensity (a.u.)
5,CTCTCCATTCTGTACTTTTTTTTGCAACCCTCATCGTTTCCGGAGTCACCTAGTGCAG,14100 fluorescence intensity (a.u.)
6,TCATTGCTGTCTGGGGTATGGGTGGCCTTGGGAAAAGCACCGGAGTCACCTAGTGCAG,11400 fluorescence intensity (a.u.)
7,CTTTGTCATCGCACAGTCCACATAACTTATCCCCACGCAACGGAGTCACCTAGTGCAG,8870 fluorescence intensity (a.u.)
8,TATGTCTTTGATATGTCCTTCTCGCTTTTCTTCCTTTTCCCGGAGTCACCTAGTGCAG,9390 fluorescence intensity (a.u.)
9,CCCCATGCTGTTTTCTCAACCTCCTACTGTATTTCTCTACCGGAGTCACCTAGTGCAG,14400 fluorescence intensity (a.u.)
10,GTTGTCTTTCGTTTTTCCGCTGCATTTATGTAAGACTTTTCGGAGTCACCTAGTGCAG,8180 fluorescence intensity (a.u.)
11,CCGGCGCTCGCCTCGATCTCCGCCGCCTCGTCCCACCATGCGGAGTCACCTAGTGCAG,10300 fluorescence intensity (a.u.)
12,CGCCGCCTGTCCCTCTCCCCGCCGCCTGGCCGCCGCTCGCCGGAGTCACCTAGTGCAG,9550 fluorescence intensity (a.u.)
13,ACCATGGGCGCACACGCTTCACTGCGTCTTTTTCCATCCACGGAGTCACCTAGTGCAG,8320 fluorescence intensity (a.u.)
14,GTCAACGAGACATCGACTCTCCTCTGTTTTTTTTTTTTTTCGGAGTCACCTAGTGCAG,9030 fluorescence intensity (a.u.)
15,TATCAGATCACCCGGCTAGCTCGGCTCTCTTCTTCTTCAACGGAGTCACCTAGTGCAG,9490 fluorescence intensity (a.u.)
16,TGGCTGAAGGGTGTTTTGTGCAAGTTTTGGCGGGCATATCCGGAGTCACCTAGTGCAG,8410 fluorescence intensity (a.u.)
17,CCTCCTACTCTCCTCCATTCCTTCACTGCCTTCACTTCCCCGGAGTCACCTAGTGCAG,8610 fluorescence intensity (a.u.)
18,CGTCGAGGGATCTAGTTTGCACTGGTTTTGTAAGTTGGGGCGGAGTCACCTAGTGCAG,9180 fluorescence intensity (a.u.)
19,CATAGCGTTCTTTTTTTTCTTTTCTCGATCTCTCCCGTTGCGGAGTCACCTAGTGCAG,11300 fluorescence intensity (a.u.)
20,AAACCACCAGCAGTAGCAGCCATCCATTAATACGCCTTGACGGAGTCACCTAGTGCAG,8400 fluorescence intensity (a.u.)
21,CTAGGGGCACTCATTAATCGTAGTATTATTTTATCCTTTTCGGAGTCACCTAGTGCAG,8490 fluorescence intensity (a.u.)
22,ATGCTTTTTTTATTCCTTCCTATGAGGTTGTAGTGCTATTCGGAGTCACCTAGTGCAG,10200 fluorescence intensity (a.u.)
23,CCGTGGACCAGCGCCAACCCTCGCCACCGCACGTCGCCGGCGGAGTCACCTAGTGCAG,9250 fluorescence intensity (a.u.)
24,TTCCTTCTTCCCTCTCTCACATCTTGTTGATTCCTTGCAACGGAGTCACCTAGTGCAG,8740 fluorescence intensity (a.u.)
25,TCCATCACTCTACCTGCTACTCCATCCGTTTTAGGTTTCACGGAGTCACCTAGTGCAG,8810 fluorescence intensity (a.u.)
26,GTTCGTATCGTAGCTACACATCTCCACCACTCGTTGACCACGGAGTCACCTAGTGCAG,11500 fluorescence intensity (a.u.)
27,AGGTTTCTTTTCTTGATTATACTTGGGCTGTGTAGATATTCGGAGTCACCTAGTGCAG,8630 fluorescence intensity (a.u.)

# Random excerpt: 4 records from the list
row,Sequence,binding signal
13,ACCATGGGCGCACACGCTTCACTGCGTCTTTTTCCATCCACGGAGTCACCTAGTGCAG,8320 fluorescence intensity (a.u.)
10,GTTGTCTTTCGTTTTTCCGCTGCATTTATGTAAGACTTTTCGGAGTCACCTAGTGCAG,8180 fluorescence intensity (a.u.)
27,AGGTTTCTTTTCTTGATTATACTTGGGCTGTGTAGATATTCGGAGTCACCTAGTGCAG,8630 fluorescence intensity (a.u.)
16,TGGCTGAAGGGTGTTTTGTGCAAGTTTTGGCGGGCATATCCGGAGTCACCTAGTGCAG,8410 fluorescence intensity (a.u.)

# Following part

row,Sequence,binding signal
1,CAGCCCTGCTAACCATGTATTTTTCTCCTACTCCTCTATTCGGAGTCACCTAGTGCAG,9500 fluorescence intensity (a.u.)
2,TCCTTTCTTCCAATCTGATTCAGTCCGATCTATTTCAATTCGGAGTCACCTAGTGCAG,8090 fluorescence intensity (a.u.)
3,GATTAGTAAAACATACCACTTCAATTCCTATATTTTTTCTCGGAGTCACCTAGTGCAG,10000 fluorescence intensity (a.u.)
4,AGTCGTTTCGTCTCGTCTCGTCTCCTCCGTTTGAGATTCCCGGAGTCACCTAGTGCAG,8420 fluorescence intensity (a.u.)
5,ACCGTATTTTACGTTTTGTTCTGTATCTAATTCGGTTTGTCGGAGTCACCTAGTGCAG,10700 fluorescence intensity (a.u.)
6,GCCGCCGCTCGTCCCGTTTCACTCATCCGCCGCTGAGCTCCGGAGTCACCTAGTGCAG,10200 fluorescence intensity (a.u.)
7,CAATATTTAAATGTCCATTCCACCCTTATGTTTTTCATTGCGGAGTCACCTAGTGCAG,9620 fluorescence intensity (a.u.)
8,CACGTCGCCTCGTTTCTTGCCTCGCCGCTCGTCACTCGGCCGGAGTCACCTAGTGCAG,9810 fluorescence intensity (a.u.)
9,CTCTTCCGCTTCCTACTCCTACTCCGTCGCAATCCGCCGCCGGAGTCACCTAGTGCAG,9870 fluorescence intensity (a.u.)
10,ACTCCTGCACACCGCAGTCAAAGTTCTTAAGTCTCAACTACGGAGTCACCTAGTGCAG,9260 fluorescence intensity (a.u.)
11,TCGTTAATTTGCAACCATACCTTAGCTCCACACTCCACGACGGAGTCACCTAGTGCAG,8420 fluorescence intensity (a.u.)
12,CGGGCAGCCAGCTGCATTATTTCATTATTTGTTTCTGCCTCGGAGTCACCTAGTGCAG,9200 fluorescence intensity (a.u.)
13,CACTTTTACCTGTTTTTGTTTTTTTTAACTTCTTCTACATCGGAGTCACCTAGTGCAG,10600 fluorescence intensity (a.u.)
14,GCATCCCGCCCACCCACCGCGCGCCACCGCCTCCGCCGCCCGGAGTCACCTAGTGCAG,15400 fluorescence intensity (a.u.)
15,ATCTGAATTTATTTTCCACCTATACTATACCTTTTATCAACGGAGTCACCTAGTGCAG,8500 fluorescence intensity (a.u.)
16,TGTTTGCAACGTTTGACCACTCGTCTTATTTAATTTTTTTCGGAGTCACCTAGTGCAG,8530 fluorescence intensity (a.u.)
17,TGTAACCAATATTTGACCATTCGTCTTATTCAAATTTTTTCGGAGTCACCTAGTGCAG,11500 fluorescence intensity (a.u.)
18,GGTTAAAGACATGCTAAAAAGTCAACGGTGTCAAATATTTCGGAGTCACCTAGTGCAG,11700 fluorescence intensity (a.u.)
19,CCACCGTCCGTCTCCATCCGACGCCTCCCGAACCGCAGCCCGGAGTCACCTAGTGCAG,8180 fluorescence intensity (a.u.)
20,CTTTATCCGTGTTCTTCTCTGTAGAAGGTCAATGCAGCATCGGAGTCACCTAGTGCAG,8960 fluorescence intensity (a.u.)
21,ATCCACCGCCCCATTCCTGCTCTCTTCATCTTCACCTTCACGGAGTCACCTAGTGCAG,11500 fluorescence intensity (a.u.)
22,AACTTTTTTTATATATGTGTTCTTAACAAACTCCCGAGAGCGGAGTCACCTAGTGCAG,9030 fluorescence intensity (a.u.)
23,TCCCCGCGCTTCTTCCCTTTGCCCGTCGCTCGCTGCATCACGGAGTCACCTAGTGCAG,16100 fluorescence intensity (a.u.)
24,CAAAGCCATTGGTCCCATATTATGCTTTCCAAGTAGCTTTCGGAGTCACCTAGTGCAG,8580 fluorescence intensity (a.u.)
25,CGACAACTGCTGCTCACCTACTCTCCACCTCTCCCAGTCTCGGAGTCACCTAGTGCAG,8370 fluorescence intensity (a.u.)
26,CTCGCCGCCGTTCGTCTCCGCCGCCACCGCCGCCGCCATGCGGAGTCACCTAGTGCAG,11300 fluorescence intensity (a.u.)
27,TGATACGATGACGTTTGGGTGGTTGGATATATATCATGATCGGAGTCACCTAGTGCAG,9450 fluorescence intensity (a.u.)
